Data as given in patent US20140220626A1.
Changes are numbered by the printed parent chain. Results are given in words; binding and its absence hold for the method and conditions named. Some binding calls cover weakened binding; strength is not graded here. Values belong to the binder of their own block, whether it stands above or below them.

Assays:
[1] = biological target: T1, biotin-CRP (C-reactive protein, antigen) (UniProt P02741); experiment: ELISA: refolded scFv immobilized on hydrophilic polystyrene plate, biotin-CRP 1 to 5000 ng/ml, HRP-streptavidin, A405
T1 sequence (biotin label (site not stated), looked up): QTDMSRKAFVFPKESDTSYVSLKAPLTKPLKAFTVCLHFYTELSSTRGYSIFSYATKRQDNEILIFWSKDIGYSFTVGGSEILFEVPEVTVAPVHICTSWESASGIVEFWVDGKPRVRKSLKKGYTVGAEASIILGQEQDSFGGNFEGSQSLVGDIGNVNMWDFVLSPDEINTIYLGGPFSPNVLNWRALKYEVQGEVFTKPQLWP

[2] = biological target: T1, biotin-CRP (C-reactive protein, antigen); experiment: ELISA: denatured scFv (10 ug/ml, 4M urea, 1% Tween 20) immobilized and refolded on hydrophilic polystyrene plate, biotin-CRP 1 to 5000 ng/ml, HRP-streptavidin, A405
[3] = biological target: T1, biotin-CRP (C-reactive protein, antigen); experiment: ELISA: unpurified denatured scFv (solubilized insoluble fraction, diluted 10 or 100 fold) immobilized on hydrophilic polystyrene plate, biotin-CRP 1 to 5000 ng/ml, HRP-streptavidin, A405
[4] = biological target: T1, biotin-CRP (C-reactive protein, antigen); experiment: ELISA: denatured scFv (4M urea) immobilized and refolded on hydrophilic polystyrene plate, biotin-CRP 1 to 5000 ng/ml, HRP-streptavidin, A405
[5] = biological target: T1, biotin-CRP (C-reactive protein, antigen); experiment: ELISA: denatured scFv (0.032, 0.32 or 3.2 ug per well) immobilized and refolded on hydrophilic polystyrene plate, biotin-CRP 1 to 5000 ng/ml, HRP-streptavidin, A405

binding [1]: binds
binding [2]: binds
binding [3]: binds
B1: peptide 21-2 of the invention (scFv)
scFv: MASEVKLMESGGGLVQPGGSLKLSCAASGFTFSSYGMSWVRQTPDKRLELVATINSNGGSTYYPDSVKGRFTISRDNAKNTLYLQMSSLKSEDTAMYYCARGGRLRLYFDVWGAGTSLTVSSGGGGSGGGGSGGGGSTGDIVMSQSPASLAVSLGQRATISCRASQSVSTSSYSYMHWYQQKPGQPPKLLIKYASNLESGVPARFSGSGSGTDFTLNIHPVEEEDTATYYCQHSWEIPYTFGGGTKLEIKRADAAPTVAAARIIIRRIRRIEHHHHHH

binding [2]: binds
B2: peptide 22-2 of the invention (scFv)
scFv: MASEVKLMESGGGLVQPGGSLKLSCAASGFTFSSYGMSWVRQTPDKRLELVATINSNGGSTYYPDSVKGRFTISRDNAKNTLYLQMSSLKSEDTAMYYCARGGRLRLYFDVWGAGTSLTVSSRIIIRRIRRGGGGSGGGGSGGGGSTGDIVMSQSPASLAVSLGQRATISCRASQSVSTSSYSYMHWYQQKPGQPPKLLIKYASNLESGVPARFSGSGSGTDFTLNIHPVEEEDTATYYCQHSWEIPYTFGGGTKLEIKRADAAPTVAAALEHHHHHH

binding [4]: binds
binding [1]: binds
binding [5]: binds
binding [3]: binds
B3: peptide 21-1 of the invention (scFv)
scFv: MASQVQLQQSGAELVKPGASVKLSCTASGFNIKDYYMHWVKQRTEQGLEWIGRIDPEDGETKYAPKFQGKATITADTSSNTAYLQLSSLTSEDTAVYYCARGYYGSEAMDYWGQGTSLTVSSGGGGSGGGGSGGGGSTGSIVMTQSHKFMSTSVGDRVSITCKASQDVNTAVAWYQQKPGQSPKLLIYWASTRHTGVPDRFTGSGFGTDYTLTISSVQAEDLALYYCQQHYSTPWTFGGGTKLEIKRADAAPTVAAARIIIRRIRRIEHHHHHH

binding [1]: binds
binding [3]: binds
B4: peptide 21-3 of the invention (scFv)
scFv: B3 scFv with D93N, L118V, G124R, S140D, V142L, N169S, F206S

binding [4]: binds
B5: peptide 23-1 of the invention (scFv)
scFv: MASQVQLQQSGAELVKPGASVKLSCTASGFNIKDYYMHWVKQRTEQGLEWIGRIDPEDGETKYAPKFQGKATITADTSSNTAYLQLSSLTSEDTAVYYCARGYYGSEAMDYWGQGTSLTVSSRIIIRRIRRGGGGSGGGGSGGGGSTGSIVMTQSHKFMSTSVGDRVSITCKASQDVNTAVAWYQQKPGQSPKLLIYWASTRHTGVPDRFTGSGFGTDYTLTISSVQAEDLALYYCQQHYSTPWTFGGGTKLEIKRADAAPTVAAARIIIRRIRRIEHHHHHH

binding [4]: binds
B6: peptide 22-1 of the invention (scFv)
scFv: MASQVQLQQSGAELVKPGASVKLSCTASGFNIKDYYMHWVKQRTEQGLEWIGRIDPEDGETKYAPKFQGKATITADTSSNTAYLQLSSLTSEDTAVYYCARGYYGSEAMDYWGQGTSLTVSSRIIIRRIRRGGGGSGGGGSGGGGSTGSIVMTQSHKFMSTSVGDRVSITCKASQDVNTAVAWYQQKPGQSPKLLIYWASTRHTGVPDRFTGSGFGTDYTLTISSVQAEDLALYYCQQHYSTPWTFGGGTKLEIKRADAAPTVAAALEHHHHHH

binding [2]: binds
B7: peptide 23-2 of the invention (scFv)
scFv: MASEVKLMESGGGLVQPGGSLKLSCAASGFTFSSYGMSWVRQTPDKRLELVATINSNGGSTYYPDSVKGRFTISRDNAKNTLYLQMSSLKSEDTAMYYCARGGRLRLYFDVWGAGTSLTVSSRIIIRRIRRGGGGSGGGGSGGGGSTGDIVMSQSPASLAVSLGQRATISCRASQSVSTSSYSYMHWYQQKPGQPPKLLIKYASNLESGVPARFSGSGSGTDFTLNIHPVEEEDTATYYCQHSWEIPYTFGGGTKLEIKRADAAPTVAAARIIIRRIRRIEHHHHHH
